# Reference: publication PMC9246181
# Chains of the proteins cited; added tags and fusions are not shown. Lines headed by an entry give the natural chain unless they say otherwise; changes in a name come on top.
# UniProt P51149: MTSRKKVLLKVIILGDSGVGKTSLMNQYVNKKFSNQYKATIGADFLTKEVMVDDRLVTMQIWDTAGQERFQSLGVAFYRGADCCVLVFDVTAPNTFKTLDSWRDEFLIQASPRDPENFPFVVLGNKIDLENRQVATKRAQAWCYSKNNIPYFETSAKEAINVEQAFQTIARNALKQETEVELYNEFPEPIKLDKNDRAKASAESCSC
# UniProt Q9BY11: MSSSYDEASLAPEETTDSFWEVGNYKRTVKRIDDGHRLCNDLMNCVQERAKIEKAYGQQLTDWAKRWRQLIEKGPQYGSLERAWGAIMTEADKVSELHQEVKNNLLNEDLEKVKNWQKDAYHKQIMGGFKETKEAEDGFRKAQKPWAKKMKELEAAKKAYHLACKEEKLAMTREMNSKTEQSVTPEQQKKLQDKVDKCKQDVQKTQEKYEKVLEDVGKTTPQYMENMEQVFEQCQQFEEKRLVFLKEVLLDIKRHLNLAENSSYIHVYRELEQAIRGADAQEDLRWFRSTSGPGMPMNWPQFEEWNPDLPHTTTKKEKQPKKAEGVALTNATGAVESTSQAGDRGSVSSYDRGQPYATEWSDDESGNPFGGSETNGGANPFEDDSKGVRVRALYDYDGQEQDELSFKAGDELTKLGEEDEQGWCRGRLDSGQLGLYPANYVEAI
# Target: Rab7 GTP-restricted mutant (Gal4BD fusion, pFBT9) (UniProt P51149)
# Experiment: two-hybrid; S. cerevisiae PJ69-4A co-transformed with Gal4BD (pFBT9) Rab7 GTP-restricted mutant and Gal4AD (pACT2) PACSIN1; growth on QDO (SC/-Leu/-Trp/-His/-Ade) plates, 3 days at 30°C
substance,measurement,value
"PACSIN1 (Gal4AD fusion, pACT2) (from UniProt Q9BY11 1-444)",binding,no binding

# Results are given in words; binding and its absence hold for the method and conditions named.
